Data published in paper PMC4263166.
These are yes or no findings as the source states them, for the method shown. In cells and extracts the contact can be indirect. A result given as binding can be weak or reduced; the word gives no strength.

Chains of the proteins cited; added tags and fusions are not shown. Lines headed by an entry give the natural chain unless they say otherwise; changes in a name come on top.
UniProt Q13588: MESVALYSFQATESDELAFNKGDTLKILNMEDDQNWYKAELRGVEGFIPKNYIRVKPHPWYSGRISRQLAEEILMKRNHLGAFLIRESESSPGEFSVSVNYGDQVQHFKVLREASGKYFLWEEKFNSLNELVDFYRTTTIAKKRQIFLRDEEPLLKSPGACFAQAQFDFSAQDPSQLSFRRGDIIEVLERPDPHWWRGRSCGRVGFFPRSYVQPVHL
UniProt P62993: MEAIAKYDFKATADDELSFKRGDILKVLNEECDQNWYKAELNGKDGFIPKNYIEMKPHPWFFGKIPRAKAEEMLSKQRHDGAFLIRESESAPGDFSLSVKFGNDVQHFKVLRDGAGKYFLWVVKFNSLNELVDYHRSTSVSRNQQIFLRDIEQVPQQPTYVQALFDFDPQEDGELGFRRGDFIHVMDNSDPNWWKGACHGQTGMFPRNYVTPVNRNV
UniProt Q06187: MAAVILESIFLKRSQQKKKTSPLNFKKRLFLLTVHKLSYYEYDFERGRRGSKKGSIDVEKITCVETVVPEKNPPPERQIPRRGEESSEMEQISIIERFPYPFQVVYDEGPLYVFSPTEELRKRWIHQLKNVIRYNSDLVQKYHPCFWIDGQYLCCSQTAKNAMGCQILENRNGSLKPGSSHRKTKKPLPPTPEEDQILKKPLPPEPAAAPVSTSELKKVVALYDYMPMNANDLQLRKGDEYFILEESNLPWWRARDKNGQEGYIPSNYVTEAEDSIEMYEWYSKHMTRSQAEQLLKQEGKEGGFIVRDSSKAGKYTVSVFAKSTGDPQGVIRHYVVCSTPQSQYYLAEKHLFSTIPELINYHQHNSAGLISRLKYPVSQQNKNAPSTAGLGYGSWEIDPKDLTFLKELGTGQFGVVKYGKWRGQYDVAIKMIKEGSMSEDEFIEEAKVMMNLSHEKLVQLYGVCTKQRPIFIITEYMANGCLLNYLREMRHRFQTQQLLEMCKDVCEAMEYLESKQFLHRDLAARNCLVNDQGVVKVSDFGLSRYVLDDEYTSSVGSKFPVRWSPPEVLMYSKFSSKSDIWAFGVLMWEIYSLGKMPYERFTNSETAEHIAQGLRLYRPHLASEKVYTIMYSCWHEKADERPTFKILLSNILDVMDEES
UniProt Q8WV28: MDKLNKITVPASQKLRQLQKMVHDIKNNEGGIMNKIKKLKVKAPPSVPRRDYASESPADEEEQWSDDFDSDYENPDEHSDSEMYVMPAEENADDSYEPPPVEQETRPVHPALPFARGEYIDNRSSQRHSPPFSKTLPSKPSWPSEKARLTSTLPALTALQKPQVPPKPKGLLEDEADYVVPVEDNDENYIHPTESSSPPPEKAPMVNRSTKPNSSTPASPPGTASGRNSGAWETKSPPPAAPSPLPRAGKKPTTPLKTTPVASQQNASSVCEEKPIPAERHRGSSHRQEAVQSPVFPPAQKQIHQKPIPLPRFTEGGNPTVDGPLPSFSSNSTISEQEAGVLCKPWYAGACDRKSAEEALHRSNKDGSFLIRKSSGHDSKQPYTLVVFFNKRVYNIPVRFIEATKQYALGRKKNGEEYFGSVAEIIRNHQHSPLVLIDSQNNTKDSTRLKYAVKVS

Experiments:
[1] = target: GST-coupled N-terminal SH3 domain of GRAP (UniProt Q13588); assay: pull-down; ~20 μg GST-coupled N-terminal SH3 domains on glutathione-sepharose beads; NP40 lysates of DG75 B cells stimulated via their BCR for 3 min; immunoblot; only the target purified
[2] = target: GST-coupled N-terminal SH3 domain of Grb2 (UniProt P62993); assay: as above

| Substance | binding [1] | binding [2] |
| --- | --- | --- |
| Bruton’s tyrosine kinase (Btk) (from UniProt Q06187 1-659) (enzyme) | no binding | binds |
| adaptor protein SLP65 (BLNK) (from UniProt Q8WV28 1-456) | binds weakly |  |
